The results in this text go back to patent US10064926B2, “Peptides and combination of peptides for use in immunotherapy against hepatocellular carcinoma (HCC) and other cancers” (Immatics biotechnologies GmbH, priority 2014, dated 2018).

For data set [1], the system named is tumor samples of other tumor types. Description: Over-presentation of peptides on additional tumor types versus normal tissues (LC-MS). Details: species or system human. The settings on record: for Additional Entities (additional tumor types on which the peptide was found over-presented) / Other relevant organs/diseases (additional tumor types on which the peptide was found over-presented): over-presentation on more than 5% of the measured tumor samples, or presentation on more than 5% with ratio of geometric means tumor vs normal tissues larger than 3.

Data set [2] concerns primary HCC tissue samples. Nature of the data set: Identification and label-free LC-MS relative quantitation of HLA-presented peptides (presentation profiles/scores), HCC versus normal tissues. Details: species or system human; key to PeptidePresentation (presentation score): very highly over-presented on tumors compared to a panel of normal tissues (+++); highly over-presented on tumors compared to a panel of normal tissues (++); over-presented on tumors compared to a panel of normal tissues (+). The settings on record: for PeptidePresentation (presentation score): HCC tumors compared to a panel of normal tissues.

Setting [3] is: FIG. 1, only samples on which the peptide was presented.

As to “213 (YYNKVSTVF; listed as Homo sapiens) [compound 213]”, the “Additional Entities (additional tumor types on which the peptide was found over-presented)” value in data set [1] was “NSCLC”. Besides, in data set [2], the “PeptidePresentation (presentation score)” value is recorded as “+”.

As for “192 (SYITKPEKW; listed as Homo sapiens) [compound 192]”, in data set [1], the “Additional Entities (additional tumor types on which the peptide was found over-presented)” value was “NSCLC” and the “Other relevant organs/diseases (additional tumor types on which the peptide was found over-presented)” value is listed as “Kidney, Brain”. Moreover, the “PeptidePresentation (presentation score)” value in data set [2] is “+”.

Regarding “337 (TLLAAEFLKQV; listed as Homo sapiens) [compound 337]”, the “Other relevant organs/diseases (additional tumor types on which the peptide was found over-presented)” value in data set [1] is given as “Brain”. The “PeptidePresentation (presentation score)” value in data set [2] is given as “+”.

Take “237 (ALRGEIETV; listed as Homo sapiens) [compound 237]”: in data set [1], the “Additional Entities (additional tumor types on which the peptide was found over-presented)” value is reported as “SCLC, BRCA, OC, Esophageal Cancer, Urinary bladder cancer, NHL” and the “Other relevant organs/diseases (additional tumor types on which the peptide was found over-presented)” value is reported as “Colon, Rectum”. In addition, the “PeptidePresentation (presentation score)” value in data set [2] is “+++”.

Turning to “89 (RLIEEIKNV; listed as Homo sapiens) [compound 89]”, the “Additional Entities (additional tumor types on which the peptide was found over-presented)” value in data set [1] is on record as “SCLC”. Moreover, the “PeptidePresentation (presentation score)” value in data set [2] is on record as “+++”.

With “328 (RLEEDDGDVAM; listed as Homo sapiens) [compound 328]”, the “Other relevant organs/diseases (additional tumor types on which the peptide was found over-presented)” value in data set [1] is given as “Kidney, Brain, Colon, Rectum”. Besides, in data set [2], the “PeptidePresentation (presentation score)” value is on record as “+”.

For the substance “270 (SVLDQKILL; listed as Homo sapiens) [compound 270]”, in data set [1], the “Additional Entities (additional tumor types on which the peptide was found over-presented)” value is recorded as “Melanoma, Urinary bladder cancer, Uterine Cancer, Gallbladder Cancer, Bile Duct Cancer, NHL” and the “Other relevant organs/diseases (additional tumor types on which the peptide was found over-presented)” value was “Kidney, Brain”. Besides, the “PeptidePresentation (presentation score)” value in data set [2] is listed as “++”.

As to “8 (KLLEEATISV; listed as Homo sapiens) [compound 8]”, in data set [1], the “Additional Entities (additional tumor types on which the peptide was found over-presented)” value is reported as “SCLC, MCC, Melanoma, Urinary bladder cancer, Uterine Cancer”. Besides, the “PeptidePresentation (presentation score)” value in data set [2] was “+”.

For “304 (SLIDQFFGV; listed as Homo sapiens) [compound 304]”, the “Other relevant organs/diseases (additional tumor types on which the peptide was found over-presented)” value in data set [1] is “Brain, Colon, Rectum, Pancreas”. The “PeptidePresentation (presentation score)” value in data set [2] is given as “+++”.

On to “181 (YLLEKFVAV; listed as Homo sapiens) [compound 181]”, for which, in data set [1], the “Additional Entities (additional tumor types on which the peptide was found over-presented)” value was “NSCLC, SCLC, CLL, OC, Urinary bladder cancer, AML, NHL” and the “Other relevant organs/diseases (additional tumor types on which the peptide was found over-presented)” value is “Colon, Rectum”. Further, the “PeptidePresentation (presentation score)” value in data set [2] was “+”.

With “274 (ALAEALKEV; listed as Homo sapiens) [compound 274]”, in data set [1], the “Additional Entities (additional tumor types on which the peptide was found over-presented)” value is “BRCA, MCC, Melanoma, OC, Uterine Cancer, AML” and the “Other relevant organs/diseases (additional tumor types on which the peptide was found over-presented)” value is “Colon, Rectum”. The “PeptidePresentation (presentation score)” value in data set [2] was “+”.

For “251 (RLFADILNDV; listed as Homo sapiens) [compound 251]”, in data set [1], the “Additional Entities (additional tumor types on which the peptide was found over-presented)” value is listed as “NSCLC, SCLC, PrC, Melanoma, Urinary bladder cancer, Uterine Cancer” and the “Other relevant organs/diseases (additional tumor types on which the peptide was found over-presented)” value was “Brain, Colon, Rectum”. In data set [2], the “PeptidePresentation (presentation score)” value is reported as “++”.

As to “224 (ALASVIKEL; listed as Homo sapiens) [compound 224]”, in data set [1], the “Additional Entities (additional tumor types on which the peptide was found over-presented)” value is recorded as “SCLC, PC, Melanoma” and the “Other relevant organs/diseases (additional tumor types on which the peptide was found over-presented)” value was “Brain”. Further, the “PeptidePresentation (presentation score)” value in data set [2] was “+”.

For the substance “312 (RLGIKPESV; listed as Homo sapiens) [compound 312]”, the “Other relevant organs/diseases (additional tumor types on which the peptide was found over-presented)” value in data set [1] is on record as “Brain”. Further, in data set [2], the “PeptidePresentation (presentation score)” value is “+++”.

Take “57 (HLTEAIQYV; listed as Homo sapiens) [compound 57]”: in data set [1], the “Additional Entities (additional tumor types on which the peptide was found over-presented)” value is “NHL”. Besides, in data set [2], the “PeptidePresentation (presentation score)” value is given as “++”.

In the case of “176 (TLGQIWDV; listed as Homo sapiens) [compound 176]”, in data set [1], the “Additional Entities (additional tumor types on which the peptide was found over-presented)” value was “NSCLC, GC, Melanoma, Urinary bladder cancer, PC” and the “Other relevant organs/diseases (additional tumor types on which the peptide was found over-presented)” value was “Brain, Colon, Rectum, Pancreas”. The “PeptidePresentation (presentation score)” value in data set [2] is “+”.

As for “72 (KLSEAVTSV; listed as Homo sapiens) [compound 72]”, in data set [1], the “Other relevant organs/diseases (additional tumor types on which the peptide was found over-presented)” value is “Kidney”. The “PeptidePresentation (presentation score)” value in data set [2] is “+”.

“330 (SMSADVPLV; listed as Homo sapiens) [compound 330]”: in data set [1], the “Additional Entities (additional tumor types on which the peptide was found over-presented)” value is reported as “NSCLC, SCLC, BRCA, MCC, Melanoma, Esophageal Cancer, Urinary bladder cancer, Uterine Cancer, Gallbladder Cancer, Bile Duct Cancer, AML, NHL” and the “Other relevant organs/diseases (additional tumor types on which the peptide was found over-presented)” value was “Brain, Colon, Rectum”. Further, in data set [2], the “PeptidePresentation (presentation score)” value is reported as “++”.

For the substance “226 (AVLGPLGLQEV; listed as Homo sapiens) [compound 226]”, the “Additional Entities (additional tumor types on which the peptide was found over-presented)” value in data set [1] was “PrC, Melanoma, OC”. Further, the “PeptidePresentation (presentation score)” value in data set [2] is listed as “+”.

Take “17 (RVASPTSGV; listed as Homo sapiens) [compound 17]”: in data set [1], the “Additional Entities (additional tumor types on which the peptide was found over-presented)” value was “AML” and the “Other relevant organs/diseases (additional tumor types on which the peptide was found over-presented)” value is given as “Brain”. The “PeptidePresentation (presentation score)” value in data set [2] was “+”.

On to “169 (SLFEWFHPL; listed as Homo sapiens) [compound 169]”, for which, in data set [1], the “Additional Entities (additional tumor types on which the peptide was found over-presented)” value was “NSCLC, Gallbladder Cancer, Bile Duct Cancer” and the “Other relevant organs/diseases (additional tumor types on which the peptide was found over-presented)” value is “Kidney, Brain, Colon, Rectum”. Besides, in data set [2], the “PeptidePresentation (presentation score)” value is “+”.

On to “315 (KVLDGSPIEV; listed as Homo sapiens) [compound 315]”, for which the “Other relevant organs/diseases (additional tumor types on which the peptide was found over-presented)” value in data set [1] was “Kidney”. Besides, in data set [2], the “PeptidePresentation (presentation score)” value is given as “+”.

“139 (ALSSKPAEV; listed as Homo sapiens) [compound 139]”: in data set [1], the “Additional Entities (additional tumor types on which the peptide was found over-presented)” value was “PrC, OC, Uterine Cancer” and the “Other relevant organs/diseases (additional tumor types on which the peptide was found over-presented)” value is given as “Colon, Rectum, Pancreas”. The “PeptidePresentation (presentation score)” value in data set [2] is reported as “+”.

Turning to “196 (AYLKWISQI; listed as Homo sapiens) [compound 196]”, in data set [1], the “Additional Entities (additional tumor types on which the peptide was found over-presented)” value is “NSCLC” and the “Other relevant organs/diseases (additional tumor types on which the peptide was found over-presented)” value is recorded as “Brain”. Moreover, the “PeptidePresentation (presentation score)” value in data set [2] was “+++”.

With “70 (KLLDLETERILL; listed as Homo sapiens) [compound 70]”, in data set [1], the “Additional Entities (additional tumor types on which the peptide was found over-presented)” value is on record as “OC, Uterine Cancer” and the “Other relevant organs/diseases (additional tumor types on which the peptide was found over-presented)” value is on record as “Colon, Rectum”. Also, in data set [2], the “PeptidePresentation (presentation score)” value is “++”.

With “186 (VLLAQIIQV; listed as Homo sapiens) [compound 186]”, in data set [1], the “Additional Entities (additional tumor types on which the peptide was found over-presented)” value is “Melanoma, OC, Uterine Cancer, Gallbladder Cancer, Bile Duct Cancer” and the “Other relevant organs/diseases (additional tumor types on which the peptide was found over-presented)” value was “Kidney, Brain, Colon, Rectum”. In addition, the “PeptidePresentation (presentation score)” value in data set [2] was “+”.

“177 (VLDEPYEKV; listed as Homo sapiens) [compound 177]”: the “Other relevant organs/diseases (additional tumor types on which the peptide was found over-presented)” value in data set [1] is on record as “Kidney”. Further, the “PeptidePresentation (presentation score)” value in data set [2] is given as “+”.

As for “144 (FIQLITGV; listed as Homo sapiens) [compound 144]”, in data set [1], the “Additional Entities (additional tumor types on which the peptide was found over-presented)” value is recorded as “NSCLC, Brain Cancer, Urinary bladder cancer” and the “Other relevant organs/diseases (additional tumor types on which the peptide was found over-presented)” value was “Pancreas”. Moreover, in data set [2], the “PeptidePresentation (presentation score)” value is listed as “+”.

As to “88 (RLIDRIKTV; listed as Homo sapiens) [compound 88]”, in data set [1], the “Additional Entities (additional tumor types on which the peptide was found over-presented)” value is on record as “NSCLC, SCLC, OC, AML, NHL” and the “Other relevant organs/diseases (additional tumor types on which the peptide was found over-presented)” value is given as “Brain, Colon, Rectum”. Further, the “PeptidePresentation (presentation score)” value in data set [2] is “+++”.

“161 (RLLDEQFAV; listed as Homo sapiens) [compound 161]”: in data set [1], the “Additional Entities (additional tumor types on which the peptide was found over-presented)” value is listed as “SCLC, BRCA” and the “Other relevant organs/diseases (additional tumor types on which the peptide was found over-presented)” value is reported as “Brain”. In addition, in data set [2], the “PeptidePresentation (presentation score)” value was “+”.

Consider “184 (VVLDGGQIVTV; listed as Homo sapiens) [compound 184]”, for which, in data set [1], the “Other relevant organs/diseases (additional tumor types on which the peptide was found over-presented)” value is reported as “Brain”. Also, the “PeptidePresentation (presentation score)” value in data set [2] is “+”.

With “170 (SLHNGVIQL; listed as Homo sapiens) [compound 170]”, in data set [1], the “Additional Entities (additional tumor types on which the peptide was found over-presented)” value is on record as “NSCLC, Urinary bladder cancer, Uterine Cancer, NHL” and the “Other relevant organs/diseases (additional tumor types on which the peptide was found over-presented)” value is given as “Kidney”. Moreover, the “PeptidePresentation (presentation score)” value in data set [2] is “+”.

As for “47 (FLDTPIAKV; listed as Homo sapiens) [compound 47]”, in data set [1] (setting [3]), the “number of cancer tissues on which the peptide was presented” value stood at 35 and the “number of normal tissues on which the peptide was presented” value turned out to be 2. For the same substance, the “number of other disease samples on which the peptide was presented” value in data set [1] (FIG. 1M, encephalocele) worked out at 1. Further, in data set [1], the “Additional Entities (additional tumor types on which the peptide was found over-presented)” value is listed as “NSCLC, GC, Esophageal Cancer” and the “Other relevant organs/diseases (additional tumor types on which the peptide was found over-presented)” value is reported as “Brain, Colon, Rectum”. In data set [2] (FIG. 1 presentation profiles), the “over-presentation in HCC compared with normal tissues” value is “over-presentation”. In addition, the “PeptidePresentation (presentation score)” value in data set [2] is “+”.
